Here are results for 107 sequences from PubChem BioAssay AID1508600 (Functional Genomics Laboratory (NCATS/FGL), 2020).

Screen size: about 53,000 sequences; about 3,700 (7%) were called active.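 The calls were made as follows: active = gene knockdowns whose robust z-score for IL-1 alpha signal is at least 2 or at most -2, so actives lie on both sides; inactive = the rest.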 The list shows a part of the results.

The assay in a line: Components of the Cytosolic LPS Sensing Pathway: Gene Identification via Genome-wide siRNA Screen.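 Also: robust z of the log signal after scaling to non-targeting control siRNA wells of the plate.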 The settings on record: RAW264.7 macrophages, IL-1a HTRF, actives lie on both sides, screened at 100 nM (by protocol), cells primed 5 h with Pam3CSK4 first. In a few lines: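 Mouse macrophage line RAW264.7 is transfected with siRNA (100 nM final), grown 48h, primed with TLR ligand Pam3CSK4 5 h and given intracellular LipidA 24 h. IL-1a in supernatant is read by HTRF and viability by luminescence.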
Take GCGGAAAAACAACUGCCAUTT against Otud5: the z-score was inactive: 1.64.
In the case of GGAAGCUUCCUAAUUCUUGTT against Slc16a1 it was inactive: -0.304; in that of CCGACAUCCUUGAUACGUUTT against Vps35l, active: -2.12; in that of GAACUCUUCCAGUGGAAGUTT against Dctpp1, inactive: -1.5.
In the case of GGAAGCAGAGAAAAUCCUGTT against Fbxl12, the z-score is inactive: -1.12.
In the case of GGAAUGUCAGUAAUCAGUGTT against Cox10 it was inactive: 0.655.
As to GGAACAAAAAGAAAAGGACTT against Map7d3, the z-score was inactive: 0.679.
Take GCGAAGUGGACAUCGUUGUTT against Ikbkb: the z-score was inactive: -1.56.
Then GGAUUUUAGCUGUUCUUGATT against Enpp1, with inactive: 0.18; and GGAGUAUGGGAUAAUUCUATT against Gm5087, with inactive: 1.22.
Regarding GGAAGAUAGAGCAUAUAUCTT against Tspan13, the z-score was inactive: -0.771.
Regarding GGAACAUGGCUUAAAGUACTT against Mrpl20, the z-score is inactive: 0.123.
Turning to “GCUUUAUGGGAGACAAAGGTT against 1700022I11Rik”, the z-score was active: 2.53.
Then GGAACAGAAAACCAUAUAATT against Snx29, with active: -2.54; and GGUGACCACUUCAUGUCACTT against Tmem138, with inactive: -1.28; and CAAAACCAUCCUUGGAAGUTT against Mrgpra8, with inactive: 1.43.
Then GCUUAUAGAAAACCAGUAATT against Foxd1, with inactive: 0.317; and CCUUUUACACUCUAGUAUGTT against Ptger4, with inactive: -0.349.
“GGCACUGCUAUUAACUACATT against 4933414I15Rik”: the z-score is inactive: -0.906.
Take GUGAAUGUGCCAUUUACUUTT against Smco4: the z-score was inactive: -0.178.
With GGAAAACCAAAGGCUCACCTT against Cyp2c29, the z-score was inactive: -0.431.
Take GGAUGAAGAACUUCUCUGGTT against Tmigd1: the z-score is inactive: 0.411.
With GGACUCUUUGGAACUACAATT against Nup98, the z-score is inactive: 0.145.
In the case of GGGCGAGCUCUUCAAGUUUTT against Mapk4 it was inactive: 1; in that of GCAUAAAACAGGGAACUUUTT against Fmo9, inactive: 0.664.
In the case of GGAUGGACUUCGUCAUGAATT against Cplx2 it was inactive: 0.55; in that of GCAUGAUCAAAUUGUAUCUTT against Nde1, active: -2.21.
Regarding GCCCUUCACUCUUCCUUUATT against Olfr137, the z-score was inactive: 0.254.
Take GGUUUCUACAAACAAGCGUTT against Ibtk: the z-score was inactive: -0.109.
In the case of GGCAUCGUUUCAGACUCGCTT against Abcc9 it was inactive: 1.11; in that of GGGCUCAUCAUUGUUAUUCTT against Olfr394, inactive: -1.13; in that of GGAUUAUCAGGAUCUUAUATT against Ate1, inactive: 0.844.
In the case of GGACAAGUGAUCUCCAUGGTT against Tmem245 it was inactive: -0.74.
Turning to GGUAAAGUUCACGGUUCCCTT against Fau, the z-score is inactive: -0.333.
As to GGCUUUCCCAAAGACUUCUTT against Col11a2, the z-score was inactive: 0.518.
Then CCUGCCAAUCUGUCUAAGUTT against Haus1, with inactive: -0.121; and GCACACCUAGAAACAACCGTT against Mfap3l, with inactive: -1.38.
Turning to GCAUAUCUAUAACAGAGCCTT against Rnase2a, the z-score is inactive: -1.23.
For the sequence CCUCGUAUUAGAUGAUGCATT against Snrpe, the z-score is active: -2.79.
On to CCACCUAUCCUAUUGACGATT against Gfus, for which the z-score was inactive: -1.12.
With GCUCUAGGAAUUCCUCACUTT against Bambi, the z-score was inactive: -1.93.
In the case of “GGGUGUACAUUUUUCUUGUTT against 1700024B05Rik”, the z-score was inactive: -0.662.
For the sequence GCCCGCAUUGCCUUUUGAATT against Rai2, the z-score was inactive: -0.846.
Then GCCAAGUCCCGACAAGUAGTT against Rpl26, with inactive: -0.122; and GGUCUUUGACAUUUUGAAUTT against Lrrk2, with inactive: -0.295; and GCUGUUGCUGGCUAUUCUGTT against Eef2kmt, with active: -2.3.
Then GGAAGGAUUGGGUUAUAGATT against Gpank1, with inactive: -0.157.
Consider CCCGACCUCAACAUUUGUATT against Bmp2k, for which the z-score was inactive: -0.265.
In the case of GCAAUAGUGAGCACGCCAGTT against Col18a1 it was inactive: 0.307; in that of CGAAAUCCAUAGAUUUACUTT against Daw1, inactive: 0.0506.
In the case of GUGAAAAAAUACAUGACCCTT against Vmn1r8 it was inactive: 0.555; in that of CCGCAUGGAGCAUCUAAUATT against Tuft1, inactive: 0.04; in that of GCUGCUUGCUGACCUCCUATT against Olfr522, inactive: 0.358.
With CCUAUGUCUAACAGAUUUGTT against Lratd2, the z-score is inactive: 0.821.
Then GGCCUACAUCAUUCACUCCTT against Olfr64, with inactive: -0.384; and GCUUCACUAAUGUUGGUCUTT against Olfr958, with inactive: 0.33; and GGAGUGUAAUCCUCCAUCATT against Ilkap, with inactive: 1.74.
GGUGUUGAUGUAAAAACACTT against Egf: the z-score was inactive: 0.0378.
Then GGAUGACUGUAUCUGUACUTT against Ttc3, with inactive: 0.0197.
Consider GCAUGUCGUCUGAGAAAGUTT against Pgr, for which the z-score was inactive: -0.748.
In the case of CGGAUAAGCGGAUCUUUGUTT against Cad it was inactive: 0.298.
Turning to GCAUUCGGAAGAGUCAUGUTT against Hnf4g, the z-score was inactive: -1.26.
In the case of CGUGGAGUAAGGAGAAUAUTT against Ints7 it was inactive: 0.364.
Then GCUUCCUUAUAGAAUUAGATT against Fam91a1, with inactive: 1.08.
Then GGAGACCUCGAUCACAUCATT against Dut, with inactive: -0.472; and CCUGGAUGGUCAUAUUAAGTT against Lats2, with inactive: -0.117; and GCUACAAGUGCCACAGAUATT against Doxl2, with inactive: 1.74.
On to GGUGUUAAUUGUAGCAGGGTT against Olfr920, for which the z-score is inactive: -0.0142.
Take GGCUUCGUGGCAAAGUCAUTT against Sucla2: the z-score is inactive: 0.37.
Consider GGAUAACCUUCUCUGGAGATT against Fbxw7, for which the z-score is inactive: 0.333.
In the case of GGAAAACAGGAAAAUCCAUTT against Olfr1076 it was inactive: 1.57; in that of CCAUGUAUCAAUGAUGAUGTT against C6, inactive: -0.398.
In the case of GCCUCUAAGAAUUCAGGAATT against Timm10b it was inactive: 0.28.
As to GGAAAAACUGAGAAAACUUTT against Lyrm1, the z-score is active: -2.41.
Then GGUCUUACAGUGGAGAGCATT against Dip2c, with inactive: -0.415; and GAAGUUGCACUUUGGCCAGTT against Gimap1, with inactive: -0.403.
Then UGUACUGAUACCUAUUUCATT against Olfr1251, with inactive: -0.899; and CGAGGUGGUCAUAAAGAACTT against Gas8, with inactive: 0.909; and GCAGUUACCAGAGAUUGUCTT against Gpr107, with inactive: 0.651.
With CCGUUUAACAGCAUAUCAUTT against Gmnc, the z-score is inactive: 0.497.
Consider GGUACAGUGAUUGUACAACTT against Atrx, for which the z-score is inactive: 0.748.
For GCCAGAUGGAUCGAAAGAUTT against Numa1, the z-score was inactive: 0.166.
As for CCAGAAACGAUGCAUUCAUTT against Olfr124, the z-score was active: 2.
In the case of GGUAGAAAAACAAUACCGGTT against Ikbip it was inactive: 0.033; in that of GGGUCAAAGCCCAUGGCAATT against Hbb-y, inactive: 0.526.
Regarding CCAUGUCGUAUGUGAUUCUTT against Hils1, the z-score is inactive: -0.528.
Then GGGUCCCAAACAAUAACUUTT against Aebp1, with inactive: 1.7.
For the sequence GGACACAAAUUUCGUGAUGTT against Clec2m, the z-score is inactive: 1.73.
In the case of GCAUCGUUACAGGACUUUATT against Enpp1 it was inactive: 0.0846.
With GGUGACACAGUACAAGAAGTT against Rpl36a, the z-score was inactive: 0.318.
Then CCAUGGGCCUACCAAACAGTT against Celf2, with inactive: -1.86; and GGUGGUCCUGGCCUAUGAATT against Tpi1, with inactive: 1.89; and GGUCAUUCUAAUGACAAUCTT against Atg14, with inactive: -0.014.
In the case of CGACGUGGCACAGAAUAUCTT against Ssbp1 it was inactive: 0.151; in that of GGACUUAUCUCAUCCAAGATT against Gm9946, inactive: 0.39.
Regarding GCAAUAGCAGCAACUCUUATT against Dbpht1, the z-score was inactive: -0.369.
Turning to GGAGGGAGUAUAUUUUCUATT against Mgll, the z-score is inactive: 0.54.
GCAUAUUCUUGCCUUUCUCTT against Vmn1r216: the z-score was inactive: -0.0933.
For the sequence CCAAGCGAAUGUCAAAAUATT against Fam163a, the z-score is inactive: 0.66.
In the case of CGUACAACACGGAAACCUATT against Paqr5 it was inactive: -0.448; in that of GGCACCUAACAAAUUAGUCTT against Spopl, inactive: -0.95.
On to CGGACAGUUAUUAUGCAUATT against Sdcbp, for which the z-score is inactive: 1.55.
Then GCCUAGCUGACAUUAAAGGTT against Susd3, with inactive: -1.3; and CCUGGAAGUUUUGAGACACTT against Mllt11, with inactive: 1.59; and GUUGUCCAUAUCAUGUUUGTT against Olfr569, with inactive: 1.28.
On to CCGACAUAUUUGUAGCUGGTT against Cyp2c55, for which the z-score is inactive: 1.72.
In the case of “GGGCAUUGUCCGAAUGAAUTT against 4930433N12Rik” it was inactive: -0.898.
